# Measurements taken from the supplement of paper PMC12067093, “Discovery and optimisation of a covalent ligand for TRIM25 and its application to targeted protein ubiquitination” (Chemical Science, 2025).
# By UniProt entry, the sequences of proteins in these tests, tags left out. Where a name states a change or a piece, a line headed by the entry shows the natural chain unless it says otherwise.
# UniProt O76094: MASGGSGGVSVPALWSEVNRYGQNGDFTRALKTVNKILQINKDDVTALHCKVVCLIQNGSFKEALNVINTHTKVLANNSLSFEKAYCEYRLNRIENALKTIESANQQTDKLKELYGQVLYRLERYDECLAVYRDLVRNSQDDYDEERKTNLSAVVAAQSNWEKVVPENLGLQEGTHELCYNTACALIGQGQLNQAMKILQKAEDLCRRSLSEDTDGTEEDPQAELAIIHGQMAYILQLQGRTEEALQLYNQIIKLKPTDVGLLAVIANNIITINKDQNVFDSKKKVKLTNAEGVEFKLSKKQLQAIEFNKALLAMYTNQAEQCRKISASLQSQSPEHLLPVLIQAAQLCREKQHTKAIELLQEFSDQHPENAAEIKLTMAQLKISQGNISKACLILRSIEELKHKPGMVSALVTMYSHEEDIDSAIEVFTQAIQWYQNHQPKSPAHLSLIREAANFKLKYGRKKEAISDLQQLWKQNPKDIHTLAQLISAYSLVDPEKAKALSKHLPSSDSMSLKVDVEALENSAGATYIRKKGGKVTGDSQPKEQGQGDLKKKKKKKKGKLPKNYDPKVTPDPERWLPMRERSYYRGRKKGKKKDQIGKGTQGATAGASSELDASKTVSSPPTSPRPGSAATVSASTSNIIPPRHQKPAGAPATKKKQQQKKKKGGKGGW
# UniProt Q8NBT2: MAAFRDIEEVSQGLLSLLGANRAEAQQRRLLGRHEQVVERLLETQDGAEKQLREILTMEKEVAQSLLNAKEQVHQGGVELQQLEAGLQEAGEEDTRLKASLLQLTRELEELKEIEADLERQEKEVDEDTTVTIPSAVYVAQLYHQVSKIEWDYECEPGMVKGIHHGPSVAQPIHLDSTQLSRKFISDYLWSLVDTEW
# UniProt Q5T280: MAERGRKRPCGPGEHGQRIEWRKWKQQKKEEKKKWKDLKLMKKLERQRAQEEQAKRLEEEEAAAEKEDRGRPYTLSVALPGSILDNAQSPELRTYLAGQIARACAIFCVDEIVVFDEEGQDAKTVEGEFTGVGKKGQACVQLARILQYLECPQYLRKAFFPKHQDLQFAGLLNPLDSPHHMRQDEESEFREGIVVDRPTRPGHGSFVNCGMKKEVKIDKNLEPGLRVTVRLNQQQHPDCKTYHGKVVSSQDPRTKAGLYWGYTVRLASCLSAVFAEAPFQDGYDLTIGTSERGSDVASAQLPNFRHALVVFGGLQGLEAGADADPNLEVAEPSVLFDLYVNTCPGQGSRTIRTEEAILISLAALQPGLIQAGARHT
# UniProt P62316, whole entry, looked up: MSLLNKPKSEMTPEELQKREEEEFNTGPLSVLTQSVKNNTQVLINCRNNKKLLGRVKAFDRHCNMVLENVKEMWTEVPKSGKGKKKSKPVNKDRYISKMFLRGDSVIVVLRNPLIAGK
# UniProt P49458: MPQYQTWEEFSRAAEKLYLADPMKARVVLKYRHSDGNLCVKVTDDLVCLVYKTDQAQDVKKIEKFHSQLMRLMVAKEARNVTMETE
# UniProt Q9Y6N5: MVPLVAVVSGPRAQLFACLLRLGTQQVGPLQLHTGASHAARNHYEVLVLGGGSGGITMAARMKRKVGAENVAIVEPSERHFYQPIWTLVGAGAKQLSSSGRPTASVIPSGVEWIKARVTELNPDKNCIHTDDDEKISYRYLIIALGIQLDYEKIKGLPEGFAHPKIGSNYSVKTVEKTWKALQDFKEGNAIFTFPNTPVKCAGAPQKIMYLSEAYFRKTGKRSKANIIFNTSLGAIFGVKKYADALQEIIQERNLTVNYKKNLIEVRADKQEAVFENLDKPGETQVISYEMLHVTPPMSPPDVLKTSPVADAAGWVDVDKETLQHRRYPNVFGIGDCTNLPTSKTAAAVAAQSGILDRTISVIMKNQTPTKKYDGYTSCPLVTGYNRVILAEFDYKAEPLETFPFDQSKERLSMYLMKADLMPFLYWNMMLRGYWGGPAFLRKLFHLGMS
# UniProt P09132: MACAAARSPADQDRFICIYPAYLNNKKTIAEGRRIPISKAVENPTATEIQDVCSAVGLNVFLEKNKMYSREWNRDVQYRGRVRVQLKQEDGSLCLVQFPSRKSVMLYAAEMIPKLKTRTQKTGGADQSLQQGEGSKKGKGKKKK
# This is one part of the list.
# Compound: CC1Cc2ccccc2N1C(=O)C1CCCN(C1)C(=O)CCl (mixture of isomers) [TRIM25 ligand 11 (diastereomer mixture)]
# Experiment: probe-labelled cysteine peptide fold change vs DMSO (competition) (log2 fold change); higher = less target engagement (more negative = stronger competition)
# Conditions: THP-1, incubation time: 4 h
# 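Note: competitive chemoproteomic profiling in live THP-1 cells with an iodoacetamide desthiobiotin (IA-DTB) probe, comparing probe-labelled peptide intensities in compound-treated cells against DMSO-treated controls.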
Target,probe-labelled cysteine peptide fold change (10 µM),probe-labelled cysteine peptide fold change (50 µM)
SRP72_O76094_50_DDVTALHCK (UniProt O76094),0.148,0.207
SPC24_Q8NBT2_155_IEWDYECEPGMVK (UniProt Q8NBT2),-0.149,-0.116
SPOUT1_Q5T280_10_RPCGPGEHGQR (UniProt Q5T280),0.168,-0.0136
SNRPD2_P62316_63_AFDRHCNMVLENVK (UniProt P62316),-0.388,-0.34
SRP9_P49458_48_VTDDLVCLVYKTDQAQDVK (UniProt P49458),-0.433,0.0457
SQOR_Q9Y6N5_127_NCIHTDDDEK (UniProt Q9Y6N5),-0.0247,-0.0231
SRP19_P09132_3_ACAAAR (UniProt P09132),-0.114,0.533
